# The other results are listed elsewhere or left out. At the low end of the ranking the order means little.
# Test system: c-MYC + MAX + histone octamer
# Experiment: Pioneer-seq (competitive nucleosome EMSA with sequencing)
# Conditions: 10 mM Tris-Cl pH 7.5, 50 mM NaCl, 1 mM DTT, 0.25 mg/ml BSA, 2 mM MgCl2, 0.025% Nonidet P-40, 5% glycerol; 28 nM nucleosome library; 10 min on ice then 30 min …; high values mean tight binding; double strand, one strand shown
row,Sequence,binding signal (log2 relative supershift)
1,GATGGACCCTATACGCGGCCTACAATAATGATGTACAACATCCATCCTCACACTCAGGCAATAAGCTTTGTTTCTCATGCTCATGGGCAAGTGGTTCAGCTGAGTGGCTCTGCATCAGGCTGCAGTTGTTCAGTTGCCTGTAGTAGTTTGCAAGGGACTGAATGTGTCACCCCTCCCCCATTCATATGTTGAAAGCCTAACCTTCAATGTTGCCAGTCGGATAGTGTTCC,-0.232
2,GATGGACCCTATACGCGGCAACCAGGGGGAGGGCATGGCACTTCCCAAGGCTATGCACCTGAATATGGGGTGTGTGTGTATGTGTGTGTGTGTGTGTGCACAGCTCAAGGCAATTCCACCCACAATTCAAGGAATATGGAGGCTGACAGACAAAGCTTGGATTTCAGATGTAAATAAAACTAGAGTTAATAAAAATGTTTACTGCAGTGCTGCCAGTCGGATAGTGTTCC,-0.0269
3,GATGGACCCTATACGCGGCCACGCTCATTTGTCTGGAGAAAACACTGAGACCTGGAGCATGTGTGTACATGCTCACCATACAGCCCGCCCCCGATGATTGTCAGGAGAGTCAGCTGATCTGAGAAAGTGACAAGCATTGGTCATTTCAGAGAAACCGGGAGTTGGGCTTTTTAAAAGAGGCATAAAGAAACTGGGAAAATGAGACTGAGTTGCCAGTCGGATAGTGTTCC,-0.0856
4,GATGGACCCTATACGCGGCATAAGAAAGACAGGACAGCCCTCCAAACCAGGACGTCATGGAGAGGTCAGCCCACCCAAAGAAGATGCAGCACATGCAGGGTGTGGAGAGGGAAGTTCACGGGTGACGGGAGACACTGCCCTACGCCGCTAAATCCCTGCAGCCTCCTCCCCCTCATCCCTGTAAAAGTGAGTCAGAAGAGCTCACTTGTCTGCCAGTCGGATAGTGTTCC,-0.57
5,GATGGACCCTATACGCGGCTTCACAGTACTACTCCCTACCTGACTGTCTCAGCATATGAATGCAAACTGCAGAAGGGTAGAAACTTGCTATTTACTGCAGTAGCCTCTGGCCCTAGGATACTTGCCTAACACTGCATGGATGTAATTGTCAGCCAGTCAATTGCATGGAATTTTGCTGAAAGTACAACTTTTGTCATTGCTTAGGAGAAGTGCCAGTCGGATAGTGTTCC,-0.172
6,GATGGACCCTATACGCGGCAAAATCTGGGTGTGGAAGAACTGTTGAACAATAGGTTAGCTCTATGTTCTACAACAGACTGTCTCTCAAATGCAGAGTTCTGTGTGTTTATTGACTACTAGCGTCAGCTTCTGTGCAGCTGAGATACAAATTCAGCCCTAGGCTTTTATCCACAGATCTGAGAGGAGGAAGGCAGGCAGGCACCTGTAATTTGCCAGTCGGATAGTGTTCC,-0.117
7,GATGGACCCTATACGCGGCTTTGGATATTTTAAAACAAATCCAGGAAGAGAGCAATGTACAACACAAAGGGATGAATCACAAATGGCAGAATTTCAGACATGAGTCAGAGATATTTTGGGTGTAGACCTGCCCTGTGTCCTATAACCCTACCACCTACTCACCTCACATTTCTCATATGAACTGATTGTTCTCTTGTTCCCTTTTTTTGTTGCCAGTCGGATAGTGTTCC,-0.113
8,GATGGACCCTATACGCGGCTCAGAACCAGATGCACAAAGAACAAACAAGTTTCCCAGCAGGACTCAAAATAGAAGGGATGGTGACTGCATGCCTTACCATTCGGGATCCTCTTCTTCCCGGAGAACTCCGCGCAGGCAGGTCTGTACCTGCTTAGAGGCAGCCTGTCTGTTGAGCAGCCCATCCTCAGTGAGGGACGATAAGAGACTGGGTGCCAGTCGGATAGTGTTCC,-0.161
9,GATGGACCCTATACGCGGCCATGTTGAATGGGTGAACTGTATGGTATGTCATTATATTTCAAGAAGCCATTAAAAAAAAACAACAGAAAGCCTTGCTGCAACATGCCTGCACTTGCTCCTGCCACATTCAGGTGGTTCTGAGCTGAAGCCACAGACAGGTCTCCCTGGGTTAGAGGTGTTCCCTGCTGGTCAGATCATTTATGATTGGAATGCCAGTCGGATAGTGTTCC,-0.169
10,GATGGACCCTATACGCGGCCAGGGTGAAAAGACTGGCCAGACATTTTCTGGAAAGAGGCAGGCTAAGCAGGAGCTTGGTAAACAAAAGCAGGAAATGGAGCGTTCAGAACATCCACAGACGTGTTCAGACATGCAGGCCCCTGCCGGGCTGCAGAGAGTATGACAATTCGGGCTTGTGTGGTGTGGAGGTACCCAATGGGATGGGACCCCTGCCAGTCGGATAGTGTTCC,-0.0713
11,GATGGACCCTATACGCGGCTCTAACAACAATTTATATGTGTATGTGCCAAGATAGGGGGGTGGGTTTCCTGAGGGCTGGAGACAGGACAGGTATGACCATGCACAGCCGCATTCTTTGGCAGAGAACACACATGATTCCCCCAAATATGTTTCTGGAAACGGAATTGAGTCTGTTCTGTGCTGAGATCTTTGACTTTCTTGAGGACAAAATGCCAGTCGGATAGTGTTCC,-0.438
12,GATGGACCCTATACGCGGCCCCTCTTCTTCCAGTTCTTTGTTTCTCTAGTTTCTATAGTTACCCGTGCTGTAAACAACCCTTCCTGCCCTGACTGTTCCCTGACATGTCCTGACAAGTCTAGACAGGCCTTGCACCATAATGGATAGCCTTCCCCTTCCTGCCTAGATAGCTGTATTCAATTTCAAACATTAGCCAATCAGGTCAGTTTATGCCAGTCGGATAGTGTTCC,-0.39
13,GATGGACCCTATACGCGGCGAGTGACTTAAGAATGTCAGAGAATAGCAAGGGAGTGGCAGAAACCCTGTGAAGCACAGGCTAAGTATGGCCATATACAGAAGGGTGGAGTCATTGTTGTGCTATTCCCTTCCCCAATGCCTAAGTCACAGCTGTGCCCCACCATTCATGGGCCCTTGTTGCTGCTGTACCCAGCCTCACAAAGTCTGGTCTGCCAGTCGGATAGTGTTCC,-0.0027

# A stretch from the list above, as a working copy:
row,Sequence,binding signal (log2 relative supershift)
3,GATGGACCCTATACGCGGCCACGCTCATTTGTCTGGAGAAAACACTGAGACCTGGAGCATGTGTGTACATGCTCACCATACAGCCCGCCCCCGATGATTGTCAGGAGAGTCAGCTGATCTGAGAAAGTGACAAGCATTGGTCATTTCAGAGAAACCGGGAGTTGGGCTTTTTAAAAGAGGCATAAAGAAACTGGGAAAATGAGACTGAGTTGCCAGTCGGATAGTGTTCC,-0.0856
4,GATGGACCCTATACGCGGCATAAGAAAGACAGGACAGCCCTCCAAACCAGGACGTCATGGAGAGGTCAGCCCACCCAAAGAAGATGCAGCACATGCAGGGTGTGGAGAGGGAAGTTCACGGGTGACGGGAGACACTGCCCTACGCCGCTAAATCCCTGCAGCCTCCTCCCCCTCATCCCTGTAAAAGTGAGTCAGAAGAGCTCACTTGTCTGCCAGTCGGATAGTGTTCC,-0.57
